Source: paper PMC12040169 (PLOS Biology, 2025)
The other results are listed elsewhere or left out.

Tested on: T1, CTL2-GFP (C. trachomatis L2/434/Bu, GFP-expressing)
T1 construct: L2/434/Bu, GFP-expressing
Set-up: species or system HeLa; Intracellular C. trachomatis growth in HeLa cells, bulk GFP fluorescence relative to DMSO
Details: bulk GFP, single well; 28.5 h, 10 µM; inhibitor

Row | Compound | % of control remaining
1 | c1ccc(Nc2c(-c3ccccc3)nc3[nH]cnn23)cc1 [CBK287284] | 94.8389%
2 | COc1ccc(C(=O)Nc2nnc(-c3ccc(OC)c(OC)c3)o2)cc1OC [CBK287745] | 104.465%
3 | CCOC(=O)/C(=N/O)C(=O)c1c[nH]c2ccccc12 [CBK260979] | 116.974%
4 | Cc1cc(C(F)(F)F)nn1CCC(=O)Nc1cnn(C)c1C(=O)O [CBK286817] | 111.605%
5 | CC1CCc2c(sc3ncnc(SCC(=O)N(C)CCC#N)c23)C1 (centres unmarked) [CBK305896] | 118.527%
6 | c1csc(-c2cncc(NCc3ccncc3)n2)c1 [CBK065583] | 171.584%
7 | O=C(c1ccoc1)N1CCC2(CCCN(CCCn3c(=O)[nH]c4ccccc43)C2)C1 (centres unmarked) [CBK132818] | 142.826%
8 | CCOc1ccccc1NC(=O)CN(c1cc(C(F)(F)F)ccc1Cl)S(C)(=O)=O [CBK264627] | 111.115%
9 | CCOC(=O)c1c(-c2ccc(C)o2)csc1NC(=O)CN1CCCCC1C (centres unmarked) [CBK265917] | 163.994%
10 | CSCCC(Nc1ncnc2c1c(C)c(C)n2Cc1ccco1)C(=O)O (centres unmarked) [CBK307568] | 164.302%
11 | COc1ccc2c(c1)c(C(=O)N1CCC3(CCNCC3)CC1)c(C)n2C [CBK306562] | 163.885%
12 | O=C(Cc1cccs1)N1CCC(O)(c2ccccn2)CC1 [CBK283587] | 142.927%
13 | COC(=O)C1=C(C)N(c2cccc(C(F)(F)F)c2)C(=O)/C1=C\c1ccc(C(=O)O)cc1 [CBK265129] | 130.672%
14 | CN1C2CCC1CC(OC(=O)CNC1CCCCC1)C2 (centres unmarked) [CBK278161C] | 137.808%
15 | Cn1nc(-c2ccc(S(=O)(=O)Nc3nc(=O)[nH]cc3F)s2)cc1C(F)(F)F [CBK067574] | 117.548%
16 | CCc1nc(CN(C(C)=O)C2CCN(CCc3ccccn3)C2)no1 (centres unmarked) [CBK305372] | 80.4847%
17 | COc1ccc(Cl)cc1NC(=S)NNC(=O)c1cc(C)nc2ccccc12 [CBK266920] | 145.127%
18 | Cc1sc2nc(SCCCN3C(=O)c4cccc5cccc(c45)C3=O)nc(N)c2c1C [CBK264424] | 100%
19 | CC(NC(=O)CCc1nc2ccccc2n1C)c1ccccn1 (centres unmarked) [CBK281823] | 118.367%
20 | CSCCN1CCC2(CC1)CN(C(=O)C(C)C)c1ccccc12 [CBK131473] | 126.229%
21 | CC[C@H]1CN(C(=O)C2CC2)CC[C@H]1CC(=O)N(C)CC#N [CBK289132] | 156.456%
22 | O=C(NCCN1CCOCC1)NC(=O)c1ccc(Cl)cc1 [CBK269446] | 124.334%
23 | NC(=O)C1(N2CCCCC2)CCN(C(=S)NC2CCCC2)CC1 [CBK091884] | 156.313%
24 | CC(C)C(N)c1nnc(SCc2ccccc2Cl)o1 (centres unmarked) [CBK270121C] | 132.866%
25 | CN(C)CCNC(=O)C1CCCN(c2nc3c(-c4ccccc4)csc3c(=O)[nH]2)C1 (centres unmarked) [CBK215501] | 164.093%
26 | O=S(=O)(c1ccc2ccccc2c1)N1CCCCC1CO (centres unmarked) [CBK200055] | 85.0121%
27 | O=C(CC1CC1)N1CCC2(CCN(Cc3ccccc3)C2)C1 (centres unmarked) [CBK136825] | 139.082%

In a second layout: results already given.

| Row | Compound | % of control remaining |
| --- | --- | --- |
| 8 | CCOc1ccccc1NC(=O)CN(c1cc(C(F)(F)F)ccc1Cl)S(C)(=O)=O [CBK264627] | 111.115% |
| 9 | CCOC(=O)c1c(-c2ccc(C)o2)csc1NC(=O)CN1CCCCC1C (centres unmarked) [CBK265917] | 163.994% |
| 10 | CSCCC(Nc1ncnc2c1c(C)c(C)n2Cc1ccco1)C(=O)O (centres unmarked) [CBK307568] | 164.302% |

Later entries

Row | Compound | % of control remaining
28 | Cn1c(=O)[nH]c2c(nc(-c3ccccc3)n2C)c1=O [CBK287855] | 139.643%
29 | O=C1c2ccccc2C2(c3ccccc3)NCCN12 (centres unmarked) [CBK067098] | 142.296%
30 | Cc1ccc(S(=O)(=O)N(CC(=O)NCC2CCCO2)c2ccccc2)cc1 (centres unmarked) [CBK264140] | 134.963%
31 | O=C(CC1CCN(CCc2ccccc2)CC1)Nc1cccc(-n2cccn2)c1 [CBK285951] | 13.6626%
32 | COc1ccc(Oc2c(-c3ccc(O)cc3O)n[nH]c2C)cc1 [CBK288239] | 103.239%
33 | CCCn1ncc(C(=O)NC(C)c2c(C)nn(CC)c2C)c1C (centres unmarked) [CBK281532] | 130.735%
34 | COc1ccccc1Nc1nc(C)cc(C)c1C(N)=O [CBK287960] | 156.097%
35 | COc1cccc(/C=N/c2cc(S(=O)(=O)c3ccc(O)c(/N=C/c4cccc(OC)c4O)c3)ccc2O)c1O [CBK261225] | 110.003%
36 | COc1cc(/C=N/NC(=O)Cc2nnc(N)s2)cc(OC)c1OC [CBK262027] | 100.912%
37 | CCn1ncc2c1CCCC2NC1CCN(c2ccc(C#N)cc2)C1=O (centres unmarked) [CBK305200] | 108.408%
38 | O=C(OCC#CCSc1nnc(-c2ccncc2)o1)c1sc2ccccc2c1Cl [CBK265677] | 115.653%
39 | CCCc1[nH]nc(O)c1CCc1ccc(OC)cc1 [CBK081128] | 121.53%
40 | CC(=O)Nc1ccc(C(=O)NC(c2cccs2)C2CCCC2)cc1 (centres unmarked) [CBK297777] | 180.283%
41 | Cc1ccc2nc(-c3ccc(N4C(=O)CC(N5CCC(N6CCCCC6)CC5)C4=O)cc3)sc2c1 (centres unmarked) [CBK265315] | 105.799%
42 | COc1ccc(OCC(=O)Nc2nonc2-c2ccccc2)cc1 [CBK287798] | 114.166%
43 | COc1cccn(CC(=O)N2CCc3sc(C(=O)N(C)C)cc3C2)c1=O [CBK307665] | 117.616%
44 | Cc1c(C(=O)C2=C(O)C(=O)N(Cc3cccnc3)C2c2cccnc2)cnn1-c1ccccc1 (centres unmarked) [CBK266543] | 136.685%
45 | Cc1noc(C)c1NC(=O)c1ccc2ncccc2c1 [CBK200308] | 122.266%
46 | O=c1[nH]c(=O)c2cc(S(=O)(=O)Nc3cccc(-c4ccc(F)cc4)c3)ccc2[nH]1 [CBK286394] | 144.119%
47 | Nc1nnc(Cn2c(-c3nonc3N)nc3ccccc32)s1 [CBK263854] | 107.538%
48 | O=S(=O)(NN1CCOCC1)c1cc(Cl)cc(Cl)c1O [CBK269279] | 154.18%
49 | CN1CCN(c2cc(N3CCN(S(=O)(=O)c4ccc5ccccc5c4)CC3)ccc2[N+](=O)[O-])CC1 [CBK264791] | 117.505%
50 | O=C(NCc1ccc(OC2CCNCC2)cc1)c1coc2c1C(=O)CCC2 [CBK038944T] | 120.429%
51 | O=C(CCn1ncc2ccccc21)N1CCC(c2ccncc2)CC1 [CBK282395] | 118.34%
52 | Cc1nn(Cc2cccc(Oc3ccccc3)c2)c(C)c1NC(=O)c1nc2ncccn2n1 [CBK267632] | 113.655%
53 | Clc1ccc(COc2nccnc2OC2CCN(CCOc3ccccc3)CC2)cc1Cl [CBK083121T] | 126.263%
54 | CCn1cc(-c2cncn2CCCC(C)(C)CO)cn1 [CBK281704] | 124.064%

Row | Compound | % of control remaining
55 | COc1ccc(CNCCN)cc1 [CBK013010] | 130.545%
56 | O=C(Cn1c2ccccc2c2ccccc21)N1CCn2cnnc2C1 [CBK283724] | 114.829%
57 | Fc1ccccc1CN1CCC(Oc2cncc(OCCN3CCOCC3)n2)C1 (centres unmarked) [CBK084479] | 106.7%
58 | O=C(Nc1ccc(OCc2ccoc2)cc1C(=O)O)c1ccc(Cl)cc1Cl [CBK003768D] | 94.5093%
59 | Nc1nc2c3c(c(-c4ccccc4)nc2[nH]1)CCCC3 [CBK020648] | 95.5637%
60 | Cc1cc(C)nc(CCNCc2c(C(C)C)nn(C)c2N(C)C)n1 [CBK305159] | 100.033%
61 | O=C(COc1ccc2c(c1)OCO2)N1CCN(Cc2ccccc2)CC1 [CBK269977] | 132.958%
62 | Cc1ccc(CN(CC2CCOC2)C2CC(C)(C)NC(C)(C)C2)o1 (centres unmarked) [CBK283174] | 92.1021%
63 | Cn1c(Cc2csc(NC(=O)c3ccc(Cl)cc3F)n2)n[nH]c1=S [CBK296635] | 117.559%
64 | CC1(NC(=O)c2cccc(OCCN3CCCC3=O)c2)CCC1 [CBK281602] | 113.239%
65 | CCCCCc1ccc(S(=O)(=O)N2CCN(C(=O)C3CCCO3)CC2)cc1 (centres unmarked) [CBK044329] | 68.4224%
66 | COc1ccc(CCNC(=O)c2nc3ncccn3n2)cc1OC [CBK268795] | 176.749%
67 | CN1CCOc2ccccc2C(=O)NC/C=C/CC2(CCN(C(=O)c3ccc(F)cc3)CC2)C1=O [CBK292055] | 155.954%
68 | Cc1ccc(NC(=O)Cn2cnc3sc(C(=O)Nc4ccccc4)c(C)c3c2=O)cc1 [CBK265931] | 199.615%
69 | CCOCc1c(O)ccc2c([N+](=O)[O-])c(C)n(-c3ccc(OC)cc3)c12 [CBK095589] | 93.4485%
70 | OCc1ccc(-n2ncc(-c3ccc(Br)cc3F)n2)cc1 [CBK112920] | 108.264%
71 | CC(C)Cn1cnc2c(Cl)nc3ccccc3c21 [CBK017530] | 107.564%
72 | Cc1cccnc1NC(=S)Nc1ccc(S(N)(=O)=O)cc1 [CBK267049] | 125.893%
73 | O=C(CSc1ncccc1C(=O)O)c1ccccc1 [CBK273178] | 112.905%
74 | Cc1cc(C(=O)NCCc2ccc(S(N)(=O)=O)cc2)ccc1[N+](=O)[O-] [CBK264390] | 117.773%
75 | O=C(NCCN1CCc2ccccc21)C1CC2C=CC1O2 (centres unmarked) [CBK283158] | 105.042%
76 | Cc1cc(NS(=O)(=O)c2ccccc2Br)n(C)n1 [CBK067376] | 97.3197%
77 | C=CCC1c2cccc(C(=O)O)c2C(=O)N1c1cccc(OC)c1 (centres unmarked) [CBK113160] | 119.482%
78 | O=C(O)CNC(=O)CN1C(=O)c2ccc(C(=O)O)cc2C1=O [CBK264080] | 100%
79 | COc1nc(OCCNS(=O)(=O)c2ccc(C)cc2)nc(N(C)C)n1 [CBK266752] | 104.157%
80 | COc1cccc2c(=O)n(CCCn3nc(C)nc3C)cnc12 [CBK307295] | 104.028%
